From article PMC6563059
These are yes or no findings as the source states them, for the method shown. Binding seen in cells or lysates may run through a third protein. Some binding calls cover weakened binding; strength is not graded here.

Amino acid sequences for entries named in this document (tags omitted).
UniProt P53762: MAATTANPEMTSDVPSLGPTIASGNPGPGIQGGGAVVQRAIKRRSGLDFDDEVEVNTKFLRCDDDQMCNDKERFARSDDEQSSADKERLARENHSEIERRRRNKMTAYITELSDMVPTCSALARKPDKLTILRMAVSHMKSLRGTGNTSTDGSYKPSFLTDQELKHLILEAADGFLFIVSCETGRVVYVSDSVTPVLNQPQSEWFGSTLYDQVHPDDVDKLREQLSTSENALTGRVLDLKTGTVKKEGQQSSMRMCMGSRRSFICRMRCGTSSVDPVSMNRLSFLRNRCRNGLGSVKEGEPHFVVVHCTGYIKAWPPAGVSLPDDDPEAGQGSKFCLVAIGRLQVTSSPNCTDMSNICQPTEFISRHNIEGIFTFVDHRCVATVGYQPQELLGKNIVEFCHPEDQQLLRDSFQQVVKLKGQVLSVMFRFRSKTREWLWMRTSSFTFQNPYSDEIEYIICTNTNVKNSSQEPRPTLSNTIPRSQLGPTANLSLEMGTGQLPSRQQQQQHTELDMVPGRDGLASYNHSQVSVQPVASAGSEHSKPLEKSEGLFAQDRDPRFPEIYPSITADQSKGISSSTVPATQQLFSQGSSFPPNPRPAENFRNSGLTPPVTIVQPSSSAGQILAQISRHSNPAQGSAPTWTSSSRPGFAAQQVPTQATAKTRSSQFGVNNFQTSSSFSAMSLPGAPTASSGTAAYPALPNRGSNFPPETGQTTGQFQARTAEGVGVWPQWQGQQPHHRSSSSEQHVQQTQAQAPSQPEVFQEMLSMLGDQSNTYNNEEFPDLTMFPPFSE

T1: RelB (mouse (endogenous in MEF)) (UniProt Q04863)
T1 sequence: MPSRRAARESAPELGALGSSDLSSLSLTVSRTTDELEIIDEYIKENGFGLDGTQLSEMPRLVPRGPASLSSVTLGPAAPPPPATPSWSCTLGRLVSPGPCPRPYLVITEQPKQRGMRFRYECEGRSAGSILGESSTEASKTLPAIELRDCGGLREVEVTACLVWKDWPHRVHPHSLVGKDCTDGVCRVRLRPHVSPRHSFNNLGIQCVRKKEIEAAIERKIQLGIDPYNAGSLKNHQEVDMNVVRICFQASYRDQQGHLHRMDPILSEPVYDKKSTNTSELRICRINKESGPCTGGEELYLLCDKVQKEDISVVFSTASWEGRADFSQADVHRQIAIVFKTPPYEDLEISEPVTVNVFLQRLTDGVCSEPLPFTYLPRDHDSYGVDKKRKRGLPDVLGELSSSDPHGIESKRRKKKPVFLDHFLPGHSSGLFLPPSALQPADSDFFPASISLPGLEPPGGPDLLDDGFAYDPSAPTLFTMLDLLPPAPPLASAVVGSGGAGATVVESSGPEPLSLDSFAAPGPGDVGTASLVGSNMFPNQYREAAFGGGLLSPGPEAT

T2: aryl hydrocarbon receptor repressor (mouse (endogenous in MEF)) (UniProt Q3U1U7)
T2 sequence: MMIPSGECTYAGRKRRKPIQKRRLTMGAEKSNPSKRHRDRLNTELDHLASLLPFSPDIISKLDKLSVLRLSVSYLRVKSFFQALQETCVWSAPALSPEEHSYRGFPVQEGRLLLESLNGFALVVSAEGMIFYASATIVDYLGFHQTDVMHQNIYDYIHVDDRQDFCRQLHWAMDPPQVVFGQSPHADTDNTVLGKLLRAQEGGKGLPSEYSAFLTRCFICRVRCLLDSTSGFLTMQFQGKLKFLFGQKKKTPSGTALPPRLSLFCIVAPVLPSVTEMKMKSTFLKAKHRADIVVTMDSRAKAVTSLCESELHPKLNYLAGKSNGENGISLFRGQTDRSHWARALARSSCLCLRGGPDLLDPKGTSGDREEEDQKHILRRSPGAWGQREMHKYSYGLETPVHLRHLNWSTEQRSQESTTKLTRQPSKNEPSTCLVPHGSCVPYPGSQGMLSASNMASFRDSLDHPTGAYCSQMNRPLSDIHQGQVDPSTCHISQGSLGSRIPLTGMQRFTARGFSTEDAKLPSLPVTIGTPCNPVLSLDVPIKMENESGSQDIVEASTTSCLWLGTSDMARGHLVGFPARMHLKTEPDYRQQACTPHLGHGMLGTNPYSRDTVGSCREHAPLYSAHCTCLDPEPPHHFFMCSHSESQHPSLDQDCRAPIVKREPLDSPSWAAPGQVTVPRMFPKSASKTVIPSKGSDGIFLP

B1: RelB (protein, UniProt Q04863 1-558)
chain: MPSRRAARESAPELGALGSSDLSSLSLTVSRTTDELEIIDEYIKENGFGLDGTQLSEMPRLVPRGPASLSSVTLGPAAPPPPATPSWSCTLGRLVSPGPCPRPYLVITEQPKQRGMRFRYECEGRSAGSILGESSTEASKTLPAIELRDCGGLREVEVTACLVWKDWPHRVHPHSLVGKDCTDGVCRVRLRPHVSPRHSFNNLGIQCVRKKEIEAAIERKIQLGIDPYNAGSLKNHQEVDMNVVRICFQASYRDQQGHLHRMDPILSEPVYDKKSTNTSELRICRINKESGPCTGGEELYLLCDKVQKEDISVVFSTASWEGRADFSQADVHRQIAIVFKTPPYEDLEISEPVTVNVFLQRLTDGVCSEPLPFTYLPRDHDSYGVDKKRKRGLPDVLGELSSSDPHGIESKRRKKKPVFLDHFLPGHSSGLFLPPSALQPADSDFFPASISLPGLEPPGGPDLLDDGFAYDPSAPTLFTMLDLLPPAPPLASAVVGSGGAGATVVESSGPEPLSLDSFAAPGPGDVGTASLVGSNMFPNQYREAAFGGGLLSPGPEAT

Columns and labels:
[1] = molecular target: T1, RelB (mouse (endogenous in MEF)); assay: co-IP; IP with RelB or AhRR antibody from MEF (wt and AhRR Tg) treated with 1 nM TCDD or DMSO for 90 min; Western blot detection; rabbit IgG as negative control
[2] = molecular target: T2, aryl hydrocarbon receptor repressor (mouse (endogenous in MEF)); assay: as above

Molecule | binding [1] | binding [2]
AhR nuclear translocator (from UniProt P53762 1-791) | binds | binds
B1 |  | binds
